Experimental data taken from PubChem BioAssay AID256 (DTP/NCI, 2004).
The list is a part of this screen's results and no random one: it is rich in T/C values a quarter to a half above the control, in often repeated tests (any T/C) and in doses without a T/C. Other doses and runs of a compound stand elsewhere. T/C: endpoint of the treated group in % of that of the vehicle group. Some doses have a count of surviving animals in place of a T/C: the source files T/C as zero there, which appears to mark a toxic dose or a test without result, not a measured value. Some survivor counts are full or nearly so, which does not show that the dose was tolerated: survival well below the control is almost never listed, so the zero probably covers shortened survival too. Survivors were counted at the toxicity check, usually on the fifth day, unless a day is given; later deaths do not show. Schedule codes are those of the source, taken here to give the interval after Q, in days (D) or hours (H), and the number of doses after X. Some molecules as drawn cover several salts, stereoisomers or complexes of the source; a dose is that of the sample tested. Some entries were tested several times; their values stand side by side, smallest first. Where survival is the endpoint, this PubChem deposit counts one and a half times the control or more as active, and values a quarter to a half above the control carry no call in these data; other NCI protocols may use other cut-offs. Some T/C values carry the count of animals alive at the toxicity check (mostly the fifth day); where none is given, no animal had died by that day.

Test system: CD2F1 mice, L1210 leukemia ip, survival T/C
Assay: NCI In Vivo Anticancer Drug Screen. Data for tumor model L1210 Leukemia (intraperitoneal) in CD2F1 (CDF1) mice
Conditions: higher T/C = longer survival
How it was run: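 Antitumor effect is scored in animals hosting a serially transplanted tumor. Values compare compound-dosed animals against vehicle-only controls as a simple quotient.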

[1] = T/C endpoint: mean survival time, dose: 400.0 mg/kg/injection, schedule: Q01DX009 (ip), vehicle: saline with Tween-80
[2] = T/C endpoint: mean survival time, dose: 400.0 mg/kg/injection, schedule: Q04DX002 (ip), vehicle: saline with Tween-80
[3] = T/C endpoint: mean survival time, dose: 200.0 mg/kg/injection, schedule: Q04DX003 (ip), vehicle: saline with Tween-80
[4] = T/C endpoint: mean survival time, dose: 400.0 mg/kg/injection, schedule: Q04DX003 (ip), vehicle: saline with Tween-80

For `CC(C)=CCNc1ncnc2c1c(C#N)cn2C1OC(CO)C(O)C1O` (stereo not drawn), the survivor count (T/C endpoint: mean survival time, dose: 100.0 mg/kg/injection, schedule: Q01DX005 (ip), vehicle: saline) was 0 of 6 and the survivor count (T/C endpoint: mean survival time, dose: 200.0 mg/kg/injection, schedule: Q01DX005 (ip), vehicle: saline) was 0 of 6.
For `CCCCCCCCCCCC(=O)OCC1OC2C(Oc3nc(=N)ccn32)C1OC(=O)CCCCCCCCCCC` (stereo not drawn), the survivor count (T/C endpoint: mean survival time, dose: 200.0 mg/kg/injection, schedule: Q01DX009 (ip), vehicle: water) was 6 of 6.
With `O=C1CNC(=O)N1c1cccc(Cl)c1` the survivor count [1] was 2 of 6.
For `CSc1ncnc2cn(C3OC(CO)C(O)C3O)nc12` (stereo not drawn), the survivor count (T/C endpoint: mean survival time, dose: 400.0 mg/kg/injection, schedule: Q01DX005 (ip), vehicle: water) was 0 of 3.
For `N#CCc1ccc(Cl)c(Cl)c1`, the survivor count (T/C endpoint: mean survival time, dose: 100.0 mg/kg/injection, schedule: Q01DX009 (ip), vehicle: saline with Tween-80) was 3 of 6.
With `CCOP(=S)(OCC)OP(=S)(OCC)OCC` the survivor count (T/C endpoint: mean survival time, dose: 8.0 mg/kg/injection, schedule: Q04DX003 (ip), vehicle: other) was 5 of 6 and the survivor count (T/C endpoint: mean survival time, dose: 16.0 mg/kg/injection, schedule: Q04DX003 (ip), vehicle: other) was 0 of 6.
With `CC1(C)CC(=O)C2=C(C1)OC1(O)CC(C)(C)CC(=O)C1C2c1ccccc1[N+](=O)[O-]` (stereo not drawn) the survivor count (T/C endpoint: mean survival time, dose: 25.0 mg/kg/injection, schedule: Q01DX001 (ip), vehicle: saline with Tween-80) was 6 of 6, the survivor count (T/C endpoint: mean survival time, dose: 50.0 mg/kg/injection, schedule: Q01DX001 (ip), vehicle: saline with Tween-80) was 6 of 6 and the survivor count (T/C endpoint: mean survival time, dose: 100.0 mg/kg/injection, schedule: Q01DX001 (ip), vehicle: saline with Tween-80) was 5 of 6. For the same compound, the survivor count (T/C endpoint: mean survival time, dose: 200.0 mg/kg/injection, schedule: Q01DX001 (ip), vehicle: saline with Tween-80) was 3 of 6 and the survivor count (T/C endpoint: mean survival time, dose: 400.0 mg/kg/injection, schedule: Q01DX001 (ip), vehicle: saline with Tween-80) was 0 of 6.
For `CC[N+](C)(CC)CCOC(=O)c1ccc(N=C=S)cc1`, the survivor count (T/C endpoint: mean survival time, dose: 100.0 mg/kg/injection, schedule: Q04DX002 (ip), vehicle: saline) was 1 of 3, the survivor count (T/C endpoint: mean survival time, dose: 200.0 mg/kg/injection, schedule: Q04DX002 (ip), vehicle: saline) was 1 of 3 and the survivor count (T/C endpoint: mean survival time, dose: 400.0 mg/kg/injection, schedule: Q04DX002 (ip), vehicle: saline) was 0 of 3.
In the case of `O=C1CN2CCC1CC2`, the survivor count (T/C endpoint: mean survival time, dose: 400.0 mg/kg/injection, schedule: Q04DX003 (ip), vehicle: saline) is reported as 0 of 6.
`O=C(C[n+]1ccc2ccccc2c1)c1ccc2ccccc2c1` was tested, and the survivor count (T/C endpoint: mean survival time, dose: 50.0 mg/kg/injection, schedule: Q04DX003 (ip), vehicle: saline with Tween-80) was 6 of 6.
With `Cc1ccc(C(=O)NCCCOc2ccc(N3C(N)=NC(N)=NC3(C)C)cc2Cl)cc1S(=O)(=O)F` the survivor count (T/C endpoint: mean survival time, dose: 200.0 mg/kg/injection, schedule: Q01DX009 (ip), vehicle: saline with Tween-80) was 0 of 6.
In the case of `CN(C)C(=O)N(c1ccccc1)c1ccccc1`, the survivor count [2] is reported as 1 of 3.
`c1ccc(SSc2ccccc2)cc1` was tested, and the survivor count [3] was 3 of 6 and the survivor count [4] was 0 of 6.
`Cc1cc(N2CCN(C)CC2)n2nc(-c3ccc(Cl)cc3)nc2n1` was tested, and the survivor count (T/C endpoint: mean survival time, dose: 400.0 mg/kg/injection, schedule: Q01DX001 (ip), vehicle: Klucel (hydroxypropylcellulose) (HPC)) was 1 of 6, the survivor count (T/C endpoint: mean survival time, dose: 400.0 mg/kg/injection, schedule: Q01DX009 (ip), vehicle: Klucel (hydroxypropylcellulose) (HPC)) was 0 of 6 and the survivor count (T/C endpoint: mean survival time, dose: 600.0 mg/kg/injection, schedule: Q01DX001 (ip), vehicle: Klucel (hydroxypropylcellulose) (HPC)) was 0 of 6.
In the case of `Cc1csc2ncnc(Cl)c12`, the survivor count (T/C endpoint: mean survival time, dose: 100.0 mg/kg/injection, schedule: Q04DX002 (ip), vehicle: saline with Tween-80) is reported as 3 of 3, the survivor count (T/C endpoint: mean survival time, dose: 200.0 mg/kg/injection, schedule: Q04DX002 (ip), vehicle: saline with Tween-80) is reported as 3 of 3 and the survivor count [2] is reported as 3 of 3.
In the case of `O=C(OCc1ccccc1)C1CC1`, the survivor count [2] is reported as 0 of 3.
`O=[N+]([O-])c1cc(S(=O)(=O)c2ccc(F)c([N+](=O)[O-])c2)ccc1F` was tested, and the survivor count (T/C endpoint: mean survival time, dose: 50.0 mg/kg/injection, schedule: Q01DX009 (ip), vehicle: Klucel (hydroxypropylcellulose) (HPC)) was 0 of 3, the survivor count (T/C endpoint: mean survival time, dose: 100.0 mg/kg/injection, schedule: Q01DX009 (ip), vehicle: Klucel (hydroxypropylcellulose) (HPC)) was 0 of 3 and the survivor count (T/C endpoint: mean survival time, dose: 200.0 mg/kg/injection, schedule: Q01DX009 (ip), vehicle: Klucel (hydroxypropylcellulose) (HPC)) was 0 of 3.
With `CCC(/C=C/C(C)C1CCC2C3CCC45CC4CCC5(C)C3CCC12C)C(C)C` (stereo not drawn) the survivor count [3] was 6 of 6.
For `Cc1ccc(NC(=O)c2ccccc2)c(C)c1`, the survivor count [1] was 3 of 6.
In the case of `C=CC1CN2CCC1CC2C(O)c1ccnc2ccc(OC)cc12` (stereo not drawn) (tested in a mixture with another compound), the survivor count (T/C endpoint: mean survival time, dose: 200.0 mg/kg/injection, schedule: Q01DX001 (ip), vehicle: saline) is reported as 6 of 6, the survivor count (T/C endpoint: mean survival time, dose: 400.0 mg/kg/injection, schedule: Q01DX001 (ip), vehicle: saline) is reported as 3 of 6 and the survivor count [4] is reported as 1 of 6 and 3 of 6.
In the case of `Cc1c2ccccc2c(CN(C)CC(=O)O)c2ccccc12`, the survivor count [4] is reported as 3 of 6.
In the case of `CC(=O)Nc1cccc(C[P+](c2ccccc2)(c2ccccc2)c2ccccc2)c1`, the survivor count [4] is reported as 0 of 3.
With `O=S1(=O)CS(=O)(=O)OCCO1` the T/C (T/C endpoint: median survival time, dose: 6.25 mg/kg/injection, schedule: Q01DX009 (ip), vehicle: Klucel (hydroxypropylcellulose) (HPC)) was 136, 137, 160, 178, 179 % of control, the T/C (T/C endpoint: median survival time, dose: 12.5 mg/kg/injection, schedule: Q01DX009 (ip), vehicle: Klucel (hydroxypropylcellulose) (HPC)) was 145, 182, 194, 208, 238 % of control and the T/C (T/C endpoint: median survival time, dose: 12.5 mg/kg/injection, schedule: Q01DX009 (oral), vehicle: Klucel (hydroxypropylcellulose) (HPC)) was 128 % of control. For the same compound, the T/C (T/C endpoint: median survival time, dose: 22.0 mg/kg/injection, schedule: Q01DX005 (oral), vehicle: Klucel (hydroxypropylcellulose) (HPC)) was 138 % of control, the T/C (T/C endpoint: median survival time, dose: 25.0 mg/kg/injection, schedule: Q01DX009 (ip), vehicle: Klucel (hydroxypropylcellulose) (HPC)) was 202, 213, 283, 337, 361 % of control and the T/C (T/C endpoint: median survival time, dose: 25.0 mg/kg/injection, schedule: Q01DX009 (oral), vehicle: Klucel (hydroxypropylcellulose) (HPC)) was 144 % of control. For the same compound, the T/C (T/C endpoint: median survival time, dose: 49.5 mg/kg/injection, schedule: Q01DX005 (oral), vehicle: Klucel (hydroxypropylcellulose) (HPC)) was 137 % of control [7 of 10 alive], the T/C (T/C endpoint: median survival time, dose: 49.5 mg/kg/injection, schedule: Q06HX002 (oral), vehicle: Klucel (hydroxypropylcellulose) (HPC)) was 130 % of control and the T/C (T/C endpoint: median survival time, dose: 50.0 mg/kg/injection, schedule: Q01DX009 (ip), vehicle: Klucel (hydroxypropylcellulose) (HPC)) was 127, 190, 259, 337, 361 % of control. The T/C (T/C endpoint: median survival time, dose: 74.2 mg/kg/injection, schedule: Q01DX001 (oral), vehicle: Klucel (hydroxypropylcellulose) (HPC)) was 126 % of control, the T/C (T/C endpoint: median survival time, dose: 74.2 mg/kg/injection, schedule: Q06HX002 (oral), vehicle: Klucel (hydroxypropylcellulose) (HPC)) was 137 % of control and the survivor count (T/C endpoint: median survival time, dose: 100.0 mg/kg/injection, schedule: Q01DX009 (ip), vehicle: Klucel (hydroxypropylcellulose) (HPC)) was 0 of 6, 3 of 6, 5 of 6. For the same compound, the survivor count (T/C endpoint: median survival time, dose: 100.0 mg/kg/injection, schedule: Q01DX009 (oral), vehicle: Klucel (hydroxypropylcellulose) (HPC)) was 3 of 10, the T/C (T/C endpoint: median survival time, dose: 111.2 mg/kg/injection, schedule: Q01DX001 (oral), vehicle: Klucel (hydroxypropylcellulose) (HPC)) was 138 % of control and the T/C (T/C endpoint: median survival time, dose: 111.2 mg/kg/injection, schedule: Q06HX002 (oral), vehicle: Klucel (hydroxypropylcellulose) (HPC)) was 147 % of control. The T/C (T/C endpoint: median survival time, dose: 166.8 mg/kg/injection, schedule: Q06HX002 (oral), vehicle: Klucel (hydroxypropylcellulose) (HPC)) was 146 % of control, the survivor count (T/C endpoint: median survival time, dose: 200.0 mg/kg/injection, schedule: Q01DX009 (oral), vehicle: Klucel (hydroxypropylcellulose) (HPC)) was 0 of 10 and the survivor count (T/C endpoint: median survival time, dose: 225.0 mg/kg/injection, schedule: Q01DX001 (oral), vehicle: Klucel (hydroxypropylcellulose) (HPC)) was 3 of 10. The survivor count (T/C endpoint: median survival time, dose: 400.0 mg/kg/injection, schedule: Q01DX009 (oral), vehicle: Klucel (hydroxypropylcellulose) (HPC)) was 0 of 10, the survivor count (T/C endpoint: median survival time, dose: 450.0 mg/kg/injection, schedule: Q01DX001 (oral), vehicle: Klucel (hydroxypropylcellulose) (HPC)) was 0 of 10 and the survivor count (T/C endpoint: median survival time, dose: 900.0 mg/kg/injection, schedule: Q01DX001 (oral), vehicle: Klucel (hydroxypropylcellulose) (HPC)) was 0 of 10. For the same compound, the survivor count (T/C endpoint: median survival time, dose: 1800.0 mg/kg/injection, schedule: Q01DX001 (oral), vehicle: Klucel (hydroxypropylcellulose) (HPC)) was 0 of 10.
For `CC1(C)OC2C(COC(=O)CI)OC(n3ccc(=O)[nH]c3=O)C2O1` (stereo not drawn), the survivor count (T/C endpoint: median survival time, dose: 100.0 mg/kg/injection, schedule: Q01DX005 (ip), vehicle: Klucel (hydroxypropylcellulose) (HPC)) was 0 of 6 and the survivor count (T/C endpoint: median survival time, dose: 200.0 mg/kg/injection, schedule: Q01DX005 (ip), vehicle: Klucel (hydroxypropylcellulose) (HPC)) was 0 of 6.
